In PMC11304257:
These are yes or no findings as the source states them, for the method shown. In cells and extracts the contact can be indirect. These calls come from enrichment with a bait or labelling near it, and not all partners need be listed. Sequences can lack the tags named with a protein.

Protein sequences, listed by entry. Tags and fused reporters are not part of them.
UniProt P78527: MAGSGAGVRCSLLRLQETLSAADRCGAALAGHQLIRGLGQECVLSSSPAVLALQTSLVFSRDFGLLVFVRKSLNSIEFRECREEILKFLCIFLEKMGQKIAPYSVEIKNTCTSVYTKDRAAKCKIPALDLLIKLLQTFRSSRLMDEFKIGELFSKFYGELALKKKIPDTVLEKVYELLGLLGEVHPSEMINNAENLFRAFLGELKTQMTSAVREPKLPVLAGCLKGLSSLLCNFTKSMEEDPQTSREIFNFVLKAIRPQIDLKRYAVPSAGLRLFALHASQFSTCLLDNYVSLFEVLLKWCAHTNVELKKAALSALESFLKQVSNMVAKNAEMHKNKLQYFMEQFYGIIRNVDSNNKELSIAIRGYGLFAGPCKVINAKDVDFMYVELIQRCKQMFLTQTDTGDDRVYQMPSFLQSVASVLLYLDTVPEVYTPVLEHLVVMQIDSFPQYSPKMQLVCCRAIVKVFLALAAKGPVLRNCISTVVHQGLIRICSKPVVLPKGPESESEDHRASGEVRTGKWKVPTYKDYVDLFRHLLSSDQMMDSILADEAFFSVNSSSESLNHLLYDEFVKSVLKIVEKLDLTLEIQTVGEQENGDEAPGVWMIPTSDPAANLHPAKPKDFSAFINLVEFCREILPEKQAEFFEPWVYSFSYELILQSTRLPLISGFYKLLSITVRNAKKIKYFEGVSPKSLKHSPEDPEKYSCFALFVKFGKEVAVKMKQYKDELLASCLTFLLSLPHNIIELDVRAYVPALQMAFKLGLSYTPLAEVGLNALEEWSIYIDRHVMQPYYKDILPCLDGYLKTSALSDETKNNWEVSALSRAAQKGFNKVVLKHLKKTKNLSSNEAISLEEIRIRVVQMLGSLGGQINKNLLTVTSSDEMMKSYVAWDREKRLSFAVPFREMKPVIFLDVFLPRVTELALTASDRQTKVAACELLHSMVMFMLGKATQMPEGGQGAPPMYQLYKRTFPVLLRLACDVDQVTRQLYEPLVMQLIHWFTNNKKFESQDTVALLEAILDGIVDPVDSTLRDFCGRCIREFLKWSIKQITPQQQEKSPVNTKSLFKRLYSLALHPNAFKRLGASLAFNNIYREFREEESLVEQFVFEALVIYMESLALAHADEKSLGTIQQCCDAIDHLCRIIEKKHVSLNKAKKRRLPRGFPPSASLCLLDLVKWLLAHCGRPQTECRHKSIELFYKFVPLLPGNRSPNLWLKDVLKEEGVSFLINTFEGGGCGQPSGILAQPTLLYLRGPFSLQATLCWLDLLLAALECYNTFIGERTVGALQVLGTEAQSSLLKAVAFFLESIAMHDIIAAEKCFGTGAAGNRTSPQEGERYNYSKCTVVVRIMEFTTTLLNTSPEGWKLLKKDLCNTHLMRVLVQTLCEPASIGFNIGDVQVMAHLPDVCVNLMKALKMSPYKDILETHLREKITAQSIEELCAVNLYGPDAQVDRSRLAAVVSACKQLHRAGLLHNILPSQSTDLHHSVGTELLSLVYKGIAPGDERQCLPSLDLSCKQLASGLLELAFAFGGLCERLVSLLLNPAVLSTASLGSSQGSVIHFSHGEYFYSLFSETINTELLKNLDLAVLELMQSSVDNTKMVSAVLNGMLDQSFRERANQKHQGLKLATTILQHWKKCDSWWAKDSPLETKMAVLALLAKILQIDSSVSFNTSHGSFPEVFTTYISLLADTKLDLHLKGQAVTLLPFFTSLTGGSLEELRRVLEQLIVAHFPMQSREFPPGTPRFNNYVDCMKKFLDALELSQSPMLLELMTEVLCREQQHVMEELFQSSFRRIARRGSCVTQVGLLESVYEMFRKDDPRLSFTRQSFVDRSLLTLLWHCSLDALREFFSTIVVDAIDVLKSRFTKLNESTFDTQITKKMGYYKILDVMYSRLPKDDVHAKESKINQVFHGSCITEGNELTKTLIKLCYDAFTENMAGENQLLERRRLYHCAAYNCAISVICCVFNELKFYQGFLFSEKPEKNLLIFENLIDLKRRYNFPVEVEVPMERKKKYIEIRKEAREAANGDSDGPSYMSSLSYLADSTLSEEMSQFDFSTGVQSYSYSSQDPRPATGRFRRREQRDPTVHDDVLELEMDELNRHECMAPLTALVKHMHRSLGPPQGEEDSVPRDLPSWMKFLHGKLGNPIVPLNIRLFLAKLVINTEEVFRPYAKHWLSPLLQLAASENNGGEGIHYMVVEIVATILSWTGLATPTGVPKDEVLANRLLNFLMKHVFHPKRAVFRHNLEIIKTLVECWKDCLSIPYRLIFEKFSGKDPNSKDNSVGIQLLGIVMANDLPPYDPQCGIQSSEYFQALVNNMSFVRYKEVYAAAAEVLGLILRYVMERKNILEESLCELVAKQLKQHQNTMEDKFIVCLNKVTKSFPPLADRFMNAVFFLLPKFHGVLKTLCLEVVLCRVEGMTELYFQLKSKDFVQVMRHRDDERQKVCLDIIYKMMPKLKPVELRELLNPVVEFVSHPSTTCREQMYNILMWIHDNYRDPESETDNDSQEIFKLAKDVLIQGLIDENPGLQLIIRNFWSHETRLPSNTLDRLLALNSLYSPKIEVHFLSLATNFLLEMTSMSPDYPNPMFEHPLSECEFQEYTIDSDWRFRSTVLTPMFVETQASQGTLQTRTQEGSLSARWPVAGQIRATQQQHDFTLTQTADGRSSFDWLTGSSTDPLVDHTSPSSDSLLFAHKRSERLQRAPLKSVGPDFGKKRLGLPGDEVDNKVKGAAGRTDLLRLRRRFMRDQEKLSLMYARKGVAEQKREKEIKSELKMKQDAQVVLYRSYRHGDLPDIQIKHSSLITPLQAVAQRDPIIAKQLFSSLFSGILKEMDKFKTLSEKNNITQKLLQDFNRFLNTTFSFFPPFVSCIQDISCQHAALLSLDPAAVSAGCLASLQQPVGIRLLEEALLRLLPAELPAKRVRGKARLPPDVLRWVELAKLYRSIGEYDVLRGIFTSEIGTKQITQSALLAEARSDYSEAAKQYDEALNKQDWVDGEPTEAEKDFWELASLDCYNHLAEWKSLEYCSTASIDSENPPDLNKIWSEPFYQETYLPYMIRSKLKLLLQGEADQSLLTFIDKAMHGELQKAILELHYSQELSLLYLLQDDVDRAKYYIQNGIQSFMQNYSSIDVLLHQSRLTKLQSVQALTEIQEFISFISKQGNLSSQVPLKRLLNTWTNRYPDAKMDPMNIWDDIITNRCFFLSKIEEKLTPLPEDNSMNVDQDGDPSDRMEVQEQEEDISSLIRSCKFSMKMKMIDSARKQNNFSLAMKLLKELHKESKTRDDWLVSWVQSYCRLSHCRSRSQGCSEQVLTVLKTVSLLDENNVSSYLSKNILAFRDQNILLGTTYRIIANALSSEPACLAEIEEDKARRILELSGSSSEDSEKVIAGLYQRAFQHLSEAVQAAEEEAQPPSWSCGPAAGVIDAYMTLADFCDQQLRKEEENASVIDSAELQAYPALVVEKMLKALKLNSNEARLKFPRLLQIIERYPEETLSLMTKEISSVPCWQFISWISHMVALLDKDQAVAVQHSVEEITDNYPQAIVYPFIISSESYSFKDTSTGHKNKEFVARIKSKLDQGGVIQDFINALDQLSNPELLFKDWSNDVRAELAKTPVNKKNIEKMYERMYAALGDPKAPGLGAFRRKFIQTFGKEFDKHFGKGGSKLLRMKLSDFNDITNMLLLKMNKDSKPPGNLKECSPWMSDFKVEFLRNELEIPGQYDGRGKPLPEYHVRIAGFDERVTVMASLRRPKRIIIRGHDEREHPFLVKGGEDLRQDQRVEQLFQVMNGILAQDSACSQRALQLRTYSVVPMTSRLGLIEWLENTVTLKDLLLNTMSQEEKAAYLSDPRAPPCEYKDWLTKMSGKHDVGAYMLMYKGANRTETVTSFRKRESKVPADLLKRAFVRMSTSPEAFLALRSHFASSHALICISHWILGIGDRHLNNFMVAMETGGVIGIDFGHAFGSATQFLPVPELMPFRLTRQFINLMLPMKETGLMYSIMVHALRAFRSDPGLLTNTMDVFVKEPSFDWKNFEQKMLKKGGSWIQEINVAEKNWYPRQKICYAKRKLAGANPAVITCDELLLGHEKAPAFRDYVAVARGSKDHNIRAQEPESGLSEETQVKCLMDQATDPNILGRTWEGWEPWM
UniProt P12956: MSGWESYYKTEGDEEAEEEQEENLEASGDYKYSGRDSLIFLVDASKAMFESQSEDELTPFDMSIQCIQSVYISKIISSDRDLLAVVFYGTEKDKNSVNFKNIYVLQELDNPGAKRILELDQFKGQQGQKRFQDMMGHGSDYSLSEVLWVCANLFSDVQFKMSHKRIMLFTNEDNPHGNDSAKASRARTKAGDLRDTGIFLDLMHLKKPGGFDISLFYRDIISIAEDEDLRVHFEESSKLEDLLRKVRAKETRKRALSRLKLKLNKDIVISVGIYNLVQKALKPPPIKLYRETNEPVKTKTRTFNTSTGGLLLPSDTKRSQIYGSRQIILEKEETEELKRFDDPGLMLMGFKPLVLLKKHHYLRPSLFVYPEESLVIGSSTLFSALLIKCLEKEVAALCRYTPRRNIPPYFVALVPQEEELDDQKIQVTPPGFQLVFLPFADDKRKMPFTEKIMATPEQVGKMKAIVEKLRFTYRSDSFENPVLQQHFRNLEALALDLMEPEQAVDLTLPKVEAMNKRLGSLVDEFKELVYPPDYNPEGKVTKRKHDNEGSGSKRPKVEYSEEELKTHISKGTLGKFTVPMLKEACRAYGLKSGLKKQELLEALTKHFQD
UniProt P13010: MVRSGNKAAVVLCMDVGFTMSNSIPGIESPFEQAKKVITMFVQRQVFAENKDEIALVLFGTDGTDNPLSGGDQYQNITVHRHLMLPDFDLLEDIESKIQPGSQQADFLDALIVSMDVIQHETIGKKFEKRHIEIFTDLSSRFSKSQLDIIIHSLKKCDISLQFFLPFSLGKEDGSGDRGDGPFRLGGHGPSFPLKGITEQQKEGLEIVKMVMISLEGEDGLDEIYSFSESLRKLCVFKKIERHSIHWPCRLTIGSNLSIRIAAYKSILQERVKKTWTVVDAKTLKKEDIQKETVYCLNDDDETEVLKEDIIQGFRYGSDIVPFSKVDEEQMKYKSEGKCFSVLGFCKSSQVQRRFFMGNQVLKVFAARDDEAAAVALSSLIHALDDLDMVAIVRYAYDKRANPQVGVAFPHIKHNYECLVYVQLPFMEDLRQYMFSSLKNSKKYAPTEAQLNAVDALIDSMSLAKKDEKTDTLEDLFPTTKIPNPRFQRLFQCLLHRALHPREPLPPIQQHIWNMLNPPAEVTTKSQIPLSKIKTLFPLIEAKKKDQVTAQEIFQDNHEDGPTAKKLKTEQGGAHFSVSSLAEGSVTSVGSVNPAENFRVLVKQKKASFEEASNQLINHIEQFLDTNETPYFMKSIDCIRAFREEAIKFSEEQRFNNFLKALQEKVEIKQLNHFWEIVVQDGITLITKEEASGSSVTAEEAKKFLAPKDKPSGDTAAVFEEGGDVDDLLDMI

Molecular target: T1, Flag-TRIM24 wild type (tripartite motif containing 24) (human) (UniProt O15164)
T1 sequence: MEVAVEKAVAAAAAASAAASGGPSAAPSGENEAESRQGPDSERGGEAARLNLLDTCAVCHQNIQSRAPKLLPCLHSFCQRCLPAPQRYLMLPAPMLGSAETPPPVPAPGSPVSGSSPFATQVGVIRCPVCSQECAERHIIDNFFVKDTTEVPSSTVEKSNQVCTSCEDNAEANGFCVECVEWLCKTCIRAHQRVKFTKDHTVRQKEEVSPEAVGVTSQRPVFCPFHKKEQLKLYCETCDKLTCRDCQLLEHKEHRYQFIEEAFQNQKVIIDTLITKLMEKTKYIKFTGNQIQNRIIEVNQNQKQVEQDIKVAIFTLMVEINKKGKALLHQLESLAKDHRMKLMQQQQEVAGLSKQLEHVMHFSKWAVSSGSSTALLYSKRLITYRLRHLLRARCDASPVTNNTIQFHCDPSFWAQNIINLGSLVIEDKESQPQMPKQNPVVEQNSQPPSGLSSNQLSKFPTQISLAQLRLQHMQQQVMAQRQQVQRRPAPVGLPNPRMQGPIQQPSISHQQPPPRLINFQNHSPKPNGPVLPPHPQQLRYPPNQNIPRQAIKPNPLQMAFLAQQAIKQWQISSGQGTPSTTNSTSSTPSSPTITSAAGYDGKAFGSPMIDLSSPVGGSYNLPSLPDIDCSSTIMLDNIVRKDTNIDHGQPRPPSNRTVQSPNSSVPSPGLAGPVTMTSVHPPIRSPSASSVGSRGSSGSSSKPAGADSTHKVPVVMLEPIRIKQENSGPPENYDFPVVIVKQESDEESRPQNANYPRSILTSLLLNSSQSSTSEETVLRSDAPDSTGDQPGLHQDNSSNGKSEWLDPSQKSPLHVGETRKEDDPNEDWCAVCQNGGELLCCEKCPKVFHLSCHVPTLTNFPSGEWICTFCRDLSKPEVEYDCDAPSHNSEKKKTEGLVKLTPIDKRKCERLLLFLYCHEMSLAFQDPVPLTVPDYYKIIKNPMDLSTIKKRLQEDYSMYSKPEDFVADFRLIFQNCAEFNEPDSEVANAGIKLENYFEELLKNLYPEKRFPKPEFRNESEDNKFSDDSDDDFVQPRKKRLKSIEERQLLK
Experiment: affinity purification with mass spectrometry; TRIM24 complex purified from NHA/HRas^V12/TRIM24 or control cells (anti-FLAG antibody pull-down by the results; TRIM24 antibody by the methods), SDS-PAGE with silver staining, LC-MS/MS

binding | Substance
binds | DNA-dependent protein kinase catalytic subunit (DNA-PKcs) (from UniProt P78527 1-4128) (enzyme)
binds | Ku70 (endogenous) (from UniProt P12956 1-609)
binds | Ku80 (endogenous) (from UniProt P13010 1-732)
